The record followed here is publication doi:10.1101/2025.07.31.667833.

No constants are given. Whether binding was seen depends on the method and setting. Some binding calls cover weakened binding; strength is not graded here.

Test [1] has as its target Spef1 V205A/L208A mutant (full-length) (mouse) (UniProt Q99JL1). As to the kind of experiment: SEC-MALS. (In general: In gel filtration, larger molecules generally elute earlier.)
Test [2] has as its target Spef1 L208A/L212A mutant (full-length) (mouse) (UniProt Q99JL1). As to the kind of experiment: SEC-MALS.
For test [3], the target named is C-terminal coiled-coil (CC) domain of Spef1 (mouse) (UniProt Q99JL1). In words: crystal structure.

B1: Spef1 V205A/L208A mutant (full-length) (protein, UniProt Q99JL1 1-234)
chain: MESSVDEEALHQLYLWVDNIPLSRPKRNLSRDFSDGVLVAELIKFYFPKMVEMHNYVPANSLQQKLSNWGHLNRKVLNKLNFSVPDDVMRKIAQCSPGVVELVLIPLRQRLEERQRRQKLGVGSLQELAPQDSSGYMDMGLPQKVRGEGAPALGEQLREGRPLASRPPGYNQALQGDPSFVLQIAEKEQELLASQETVQVLQMKAKRAEHLLQLKNVRIDDLSRRLQQAERKQR
B1: the binding entry in test [1] was “no binding (tested: ~1 mg/ml)”.

B2: Spef1 L208A/L212A mutant (full-length) (protein, UniProt Q99JL1 1-234)
chain: MESSVDEEALHQLYLWVDNIPLSRPKRNLSRDFSDGVLVAELIKFYFPKMVEMHNYVPANSLQQKLSNWGHLNRKVLNKLNFSVPDDVMRKIAQCSPGVVELVLIPLRQRLEERQRRQKLGVGSLQELAPQDSSGYMDMGLPQKVRGEGAPALGEQLREGRPLASRPPGYNQALQGDPSFVLQIAEKEQELLASQETVQVLQMKVKRAEHLAQLKNVRIDDLSRRLQQAERKQR
Regarding B2, in test [2], the binding entry is “no binding (tested: ~1 mg/ml)”.

B3: C-terminal coiled-coil (CC) domain of Spef1 (domain or fragment, UniProt Q99JL1 170-234)
chain: YNQALQGDPSFVLQIAEKEQELLASQETVQVLQMKVKRLEHLLQLKNVRIDDLSRRLQQAERKQR
With B3, the binding entry in test [3] is recorded as “binds”.
